Source: PubChem BioAssay AID1439 (NMMLSC, 2008)
Screen size: about 220,000 compounds; about 770 (0.35%) were called active. This list was built around the results that the source calls inconclusive (neither active nor inactive); the mix of calls is not that of the screen. Cut-off read from the data, not from the text of the source: active = binding response below about 49% or above about 150%; inconclusive = no clear call, values can overlap the other calls; inactive = in between.

By UniProt entry, the sequences of proteins in these tests, tags left out.
UniProt P09471, whole entry, looked up: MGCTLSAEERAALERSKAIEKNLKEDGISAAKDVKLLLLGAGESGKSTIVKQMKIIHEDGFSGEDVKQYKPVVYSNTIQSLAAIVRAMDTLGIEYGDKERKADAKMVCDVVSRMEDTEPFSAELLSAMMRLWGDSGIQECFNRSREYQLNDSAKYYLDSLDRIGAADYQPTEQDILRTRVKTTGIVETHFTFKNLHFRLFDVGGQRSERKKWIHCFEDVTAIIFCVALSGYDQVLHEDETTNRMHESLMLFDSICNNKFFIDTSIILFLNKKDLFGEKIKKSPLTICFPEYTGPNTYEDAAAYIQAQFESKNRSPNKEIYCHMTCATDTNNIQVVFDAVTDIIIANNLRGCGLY

target: Guanine nucleotide-binding protein G(o) subunit alpha (Homo sapiens) (UniProt P09471); experiment: RGS7-Galphao binding modulators, primary screen, biochemical, multiplexed bead flow cytometry (AID 1439); details: at 10 µM, actives lie on both sides;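 note: fluorescent Galphao held in activated GDP-AlF4 state binding bead-coupled RGS7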

Row | Structure (SMILES) | binding response (% of control)
1 | COc1cc(/C=C2\COC/C(=C\c3cc(OC)c(OC)c(OC)c3)C2=O)cc(OC)c1OC | inconclusive: 91.1%
2 | Cc1noc(C)c1-c1nnc(-c2ccc(OC(F)(F)F)cc2)o1 | inconclusive: 109%
3 | COc1cccc(/C=C/C(=O)N2CCN(S(=O)(=O)c3ccccc3)CC2)c1OC | inconclusive: 113%
4 | O=P(c1ccccc1)(c1ccccc1)c1nc(-c2ccccc2)oc1NCc1ccccc1 | inactive: 102%
5 | CCN(CC)Cc1cc2[nH]c3c4ccc(Cl)cc4ncc3c2cc1OC | inconclusive: 98.1%
6 | COc1ccc(NC(=O)C2CCCN2C(=O)Oc2ccccc2)cc1 (stereo not drawn) | inactive: 101%
7 | O=C1c2ccccc2C(=O)N1c1ncn[nH]1 | inconclusive: 36.5%
8 | CCOc1ccc(-n2c(SCC(=O)Nc3nccs3)nnc2-c2ccoc2C)cc1 | inconclusive: 96.7%
9 | O=c1c(Cl)c(N2CCNCC2)cnn1C12CC3CC(CC(C3)C1)C2 | inactive: 98.5%
10 | COc1ccc(C(F)(F)F)cc1NC(=O)c1nc2nc(C)cc(C(F)F)n2n1 | active: 33.4%
11 | CCCCN1C(=O)CC(C(=O)OCC)=C1C | inconclusive: 71.5%
12 | COc1cccc(C2C(C#N)=C(N)SC(c3ccccc3)C2[N+](=O)[O-])c1 (stereo not drawn) | inconclusive: 75.7%
13 | Cc1cc(C)n(CCNC(=O)CC2C(=O)NCCN2CC2CCCCC2)n1 (stereo not drawn) | inactive: 103%
14 | O=C(N1CCCC1)C(F)(F)Oc1ccc(F)cc1 | inconclusive: 90.6%
15 | CC(=O)c1ccc(NC(=O)c2ccc(CNc3c(N4CCOCC4)c(=O)c3=O)cc2)cc1 | inconclusive: 105%
16 | Brc1cnc2nc(SCc3nc4ccccc4[nH]3)[nH]c2c1 | inconclusive: 120%
17 | Cc1ccc(O)c(CNc2ccc(S(=O)(=O)Nc3nccs3)cc2)c1 | inconclusive: 78%
18 | COc1cc(OC)cc(C(=O)NC(=S)Nc2nc(-c3cc4ccccc4o3)cs2)c1 | inconclusive: 102%
19 | CN(C)S(=O)(=O)N1C(=O)c2ccccc2C1=O | inconclusive: 74.7%
20 | N#CCn1c(C2CCCCC2)nc2ccccc2c1=O | inactive: 99.8%
21 | Brc1cccc(CNc2nc3ccccc3n2CCN2CCOCC2)c1 | inconclusive: 86.9%
22 | CCCN1CN=C(Nc2nc3ccccc3o2)NC1 | inconclusive: 92.9%
23 | CCCN1CCC(=O)N([C@H](CSc2ccc(C)cc2)c2ccccc2)CC1 | inconclusive: 93.5%
24 | C/C(=N\N(Cc1ccccc1)c1ccccc1)c1cccnc1 | inactive: 98.2%

Row | Structure (SMILES) | binding response (% of control)
25 | CCCc1nc2c(o1)CC(CC(C)SCC)CC2=O (stereo not drawn) | active: -1.26%
26 | COc1ccc2ccccc2c1CN1CCN(Cc2ccccc2)CC1 | inactive: 100%
27 | CCCCCCC(=O)Nc1nnc(CC)s1 | inactive: 110%
28 | O=C(Nc1cccc2ccccc12)N1CCCN(c2c(Cl)cncc2Cl)CC1 | inconclusive: -10.7%
29 | Oc1ccc(/C=N/Nc2nc(-c3cccnc3)nc3ccccc23)c(O)c1 | inconclusive: 100%
30 | S=C(NCc1ccco1)Nc1ccccc1Cl | inconclusive: 72.4%
31 | CC1CCCCC12NC(=O)N(Cc1cc(=O)n3ccsc3n1)C2=O (stereo not drawn) | inconclusive: 70.5%
32 | C=C1C(C(=O)Nc2ccc(OC)cc2)C1C(=O)Nc1ccc(OC)cc1 (stereo not drawn) | inconclusive: 3.3%
33 | Cc1c2n(c3ccccc13)CC/C2=N\O | inconclusive: 96.1%
34 | CCn1c2c(c(=N)c3ccccc31)CCC2 | inconclusive: 93.9%
35 | CSc1ccc(NC(=O)Nc2cc(C)ccn2)cc1 | inconclusive: 88.8%
36 | CCCN(Cc1ccco1)S(=O)(=O)c1ccc(OC)c(OC)c1 | inconclusive: 132%
37 | CCOC(=O)c1sc(N=NC2=C(O)CC(C)(C)CC2=O)c(C(=O)OCC)c1C | inconclusive: 97.8%
38 | COC(=O)CCC(=O)OC1(C)C(=O)C2=CN(CC3CC3)C(c3ccc(OC)cc3)=CC2=C(Br)C1=O (stereo not drawn) | inconclusive: 65.9%
39 | O=c1cc(CN2CCN(c3ccccc3)CC2)c2c(ccc3ccccc32)o1 | inactive: 108%
40 | COc1ccc(/C=C/C(=O)C2(O)CCCCC2)cc1OC | inactive: 98.7%
41 | O=C1OC(COc2ccc(Br)cc2)CN1c1ccccc1 (stereo not drawn) | inconclusive: 106%
42 | S=C(Nc1ccccc1)N1CCn2c(nc3ccccc32)C1 | inconclusive: 126%
43 | COC(=O)c1ccc2c(=O)n(CCN3CCOCC3)c(SCC(=O)c3ccccc3)nc2c1 | inconclusive: 110%
44 | O=C(NCc1ccco1)NC(=O)c1csc([N+](=O)[O-])c1 | inconclusive: 123%
45 | CCOC(=O)C1(Cc2cccc(F)c2)CCN(CCCn2cccn2)CC1 | inconclusive: 101%
46 | Cc1nc2c3cc(Cl)ccc3n(CCN3CCOCC3)c2s1 | inconclusive: 95.4%
47 | CCNc1ccc(S(=O)(=O)N(C)C)cc1NCC(=O)Nc1ccccc1F | inactive: 104%
48 | CCOC(=O)c1nc(C)sc1-c1ccnn1S(=O)(=O)c1ccc(Cl)cc1Cl | inconclusive: 69.7%

Among those listed so far, two contain a thiophene ring, fused or not.
Row | Structure (SMILES) | binding response (% of control)
37 | CCOC(=O)c1sc(N=NC2=C(O)CC(C)(C)CC2=O)c(C(=O)OCC)c1C | inconclusive: 97.8%
44 | O=C(NCc1ccco1)NC(=O)c1csc([N+](=O)[O-])c1 | inconclusive: 123%

Carrying on.

Row | Structure (SMILES) | binding response (% of control)
49 | COc1ccc(C(=O)C2CCCN(S(=O)(=O)C(C)C)C2)c(C)c1 (stereo not drawn) | inactive: 99.5%
50 | COc1ccc(NC(=S)NC(C)Cc2cccs2)cc1 (stereo not drawn) | inconclusive: 99%
51 | COc1ccccc1N1CCN(C(=O)CSc2nc(C)c(Cc3ccccc3)c(=O)[nH]2)CC1 | inactive: 123%
52 | CCCN(CCC)c1ccc(C(O)c2nnc(-c3ccccc3)o2)cc1 (stereo not drawn) | inconclusive: 93.3%
53 | CCN(CC)c1ccc([N+](=O)[O-])cc1C(=O)N1CCOCC1 | inconclusive: 78.3%
54 | CCOC(=O)N1CCN(C(=O)c2c(N)no[n+]2[O-])CC1 | inactive: 96.8%
55 | O=C(Nc1cccc(-c2csc(Nc3cccc(C(F)(F)F)c3)n2)c1)c1ccccc1 | inconclusive: 123%
56 | C=CCN1C(=O)C(CC(=O)Nc2ccccc2F)S/C1=N\c1nccs1 (stereo not drawn) | inconclusive: 92.7%
57 | CCOC(=O)CN1C(=O)S/C(=C/c2ccc3c(c2)n(C)c(=O)n3C)C1=O | inactive: 83.8%
58 | CC(=O)Nc1ccc(S(=O)(=O)N2CCN(CCN3CCOCC3)CC2)cc1Cl | inconclusive: 76.4%
59 | Cc1c(C(=O)Oc2ccc(Cl)cc2)n(C)oc1=O | inconclusive: 121%
60 | C/C(=N\NC(=O)c1cc(-c2ccco2)nc2ccccc12)c1cccnc1 | inconclusive: 82%
61 | CCOC(=O)C(=O)N/N=C/c1ccco1 | inconclusive: 332%
62 | CCN(CC)CCNc1ncnc2c1sc1nc(N3CCOCC3)c3c(c12)CCCC3 | inconclusive: 122%
63 | C=Cc1ccc2c(c1)N(C)C(=C)S2 | inconclusive: 88.8%
64 | O=C(NNC(=O)C1C2CCCCC21)c1coc(=O)c(Br)c1 (stereo not drawn) | inconclusive: 108%
65 | COc1ccc(Nc2ccc(N3C(=O)CCCC3=O)cc2[N+](=O)[O-])c(OC)c1 | inactive: 102%
66 | CN(C)CCn1c(=S)[nH]c2ccc(Cl)cc2c1=O | inactive: 97.9%
67 | O=C(NNC1=Nc2ccccc2SC1)c1ccc(Cl)cc1 | inconclusive: 113%
68 | CN(C1CCCCC1)S(=O)(=O)c1ccc(NC(=S)NC(=O)c2cccs2)cc1 | inactive: 96.2%
69 | O=C(NC1CC1)C1=C[C@@H](c2ccc(Br)cc2)C[C@@H](OCc2ccc(CO)cc2)O1 | inconclusive: 117%
70 | Cc1cccc(/C=N/NC(=O)Cc2cccs2)c1 | inconclusive: 102%
71 | COc1ccc(CC(=O)N/N=C/c2ccc(-c3ccc(F)cc3)o2)cc1OC | inconclusive: 107%
72 | COc1ccc(-c2csc(C3=C(O)CN(C(C)C)C3=N)n2)cc1OC | inconclusive: 107%

Row | Structure (SMILES) | binding response (% of control)
73 | COc1ccccc1-c1nnc(SC/C(O)=C(\C#N)c2nc3ccccc3[nH]2)n1C1CCCCC1 | inactive: 101%
74 | Cc1ccc(Nc2cc(-c3ccccc3)nc3ncnn23)cc1 | inconclusive: 91.8%
75 | COCCNC(=O)/C(C#N)=C/c1nc(N(C)C)n(-c2ccc(F)cc2)c1Cl | inconclusive: 99.8%
76 | Cc1ccn(CCC(=O)N2CCCC(CCC(=O)N3CCN(c4ccccn4)CC3)C2)n1 (stereo not drawn) | inactive: 97.8%
77 | C/C(=C/C(=O)O)C(=O)Nc1cccc(C(F)(F)F)c1 | inactive: 89.9%
78 | Cc1nnc(SCC(=O)N2c3ccccc3CC2C)[nH]c1=O (stereo not drawn) | inactive: 98.2%
79 | O=C(CSc1nncs1)NC(=O)Nc1ccc2c(c1)OCCO2 | inconclusive: 109%
80 | CCOC(=O)C1(CC2CCCCO2)CCN(Cc2ccc(OC)cc2F)CC1 (stereo not drawn) | inactive: 105%
81 | Cc1cccc(NN=C2c3ccccc3-c3ccccc32)c1 | inactive: 101%
82 | C=CCSc1cc(C)nc2c(-c3ccccc3)cnn12 | inconclusive: 104%
83 | Cc1nc2c(sc3nc(N4CCOCC4)c4c(c32)CC(C)(C)OC4)c(-c2ccccc2)c1C(=O)O | inconclusive: 89.7%
84 | CC(C)NC(=O)C(=O)NNC(=O)C12CC3CC(CC(C3)C1)C2 | inactive: 101%
85 | COc1ccc(C(=O)NN)cc1 | inconclusive: 79.7%
86 | CC(=O)/C(C#N)=C1\NC(=O)C(Cc2ccc(C)c(C)c2)S1 (stereo not drawn) | inactive: 99.7%
87 | O=C1NC(=O)/C(=C/c2ccccn2)S1 | inconclusive: 611%
88 | O=S(=O)(Nc1ccc(Br)cn1)c1cccs1 | inconclusive: 95.6%
89 | CN(C)c1ccc(P(=O)(OCc2ccccc2)C(O)c2ccccc2F)cc1 (stereo not drawn) | inconclusive: 92.6%
90 | CCOC(=O)C1CCN(C(=O)Cc2cccc3ccccc23)CC1 | inactive: 98.4%
91 | CCN(CC)S(=O)(=O)c1ccc(/C=C/C(=O)OCC(=O)NCc2ccc3c(c2)OCO3)cc1 | inconclusive: 94.9%
92 | CCOC(=O)c1sc(NNC(=O)c2ccc(F)cc2)nc1C | inconclusive: 90.3%
93 | COC(=O)Cc1ccc(NC(=O)c2ccccc2Br)cc1 | inconclusive: -204%

Another view of part of the listing above:
O=C(CSc1nncs1)NC(=O)Nc1ccc2c(c1)OCCO2
  binding response (% of control): inconclusive: 109%
CCOC(=O)C1(CC2CCCCO2)CCN(Cc2ccc(OC)cc2F)CC1 (stereo not drawn)
  binding response (% of control): inactive: 105%
